Drawing on PMC12573823, this text covers binding for two molecules.

Sequences of proteins named here, by UniProt entry; tags and fusion partners are left off.
UniProt Q8R4B8: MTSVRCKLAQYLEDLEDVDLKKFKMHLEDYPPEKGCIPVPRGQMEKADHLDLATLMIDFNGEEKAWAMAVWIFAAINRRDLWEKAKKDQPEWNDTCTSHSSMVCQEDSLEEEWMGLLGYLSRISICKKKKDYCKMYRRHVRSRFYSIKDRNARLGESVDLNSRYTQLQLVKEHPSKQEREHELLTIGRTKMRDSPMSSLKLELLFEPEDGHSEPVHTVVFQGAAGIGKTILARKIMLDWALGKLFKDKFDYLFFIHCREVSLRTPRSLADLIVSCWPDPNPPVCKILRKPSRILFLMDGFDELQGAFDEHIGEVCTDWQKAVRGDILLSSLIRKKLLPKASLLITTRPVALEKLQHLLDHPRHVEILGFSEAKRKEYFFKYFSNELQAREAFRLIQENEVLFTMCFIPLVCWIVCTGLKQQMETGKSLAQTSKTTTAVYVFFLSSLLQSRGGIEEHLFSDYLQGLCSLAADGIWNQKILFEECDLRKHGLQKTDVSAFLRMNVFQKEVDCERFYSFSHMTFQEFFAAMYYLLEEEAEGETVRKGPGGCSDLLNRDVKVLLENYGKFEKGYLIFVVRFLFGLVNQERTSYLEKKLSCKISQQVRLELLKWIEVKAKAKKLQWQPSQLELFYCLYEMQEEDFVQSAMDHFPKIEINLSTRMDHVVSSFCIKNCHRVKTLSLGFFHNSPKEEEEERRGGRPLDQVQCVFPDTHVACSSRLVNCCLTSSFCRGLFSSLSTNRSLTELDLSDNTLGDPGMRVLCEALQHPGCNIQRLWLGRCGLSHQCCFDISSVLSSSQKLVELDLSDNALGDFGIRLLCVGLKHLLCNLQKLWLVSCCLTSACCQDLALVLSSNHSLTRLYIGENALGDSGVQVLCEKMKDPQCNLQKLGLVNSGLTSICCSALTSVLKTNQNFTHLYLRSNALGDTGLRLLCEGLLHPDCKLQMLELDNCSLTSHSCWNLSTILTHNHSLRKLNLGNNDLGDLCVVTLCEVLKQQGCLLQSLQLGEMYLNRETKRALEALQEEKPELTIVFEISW

Assay [1] has as its target T1, Double-stranded RNA-dependent protein kinase (PKR) (mouse (endogenous in mouse NP cells)) (UniProt Q03963).
T1 sequence: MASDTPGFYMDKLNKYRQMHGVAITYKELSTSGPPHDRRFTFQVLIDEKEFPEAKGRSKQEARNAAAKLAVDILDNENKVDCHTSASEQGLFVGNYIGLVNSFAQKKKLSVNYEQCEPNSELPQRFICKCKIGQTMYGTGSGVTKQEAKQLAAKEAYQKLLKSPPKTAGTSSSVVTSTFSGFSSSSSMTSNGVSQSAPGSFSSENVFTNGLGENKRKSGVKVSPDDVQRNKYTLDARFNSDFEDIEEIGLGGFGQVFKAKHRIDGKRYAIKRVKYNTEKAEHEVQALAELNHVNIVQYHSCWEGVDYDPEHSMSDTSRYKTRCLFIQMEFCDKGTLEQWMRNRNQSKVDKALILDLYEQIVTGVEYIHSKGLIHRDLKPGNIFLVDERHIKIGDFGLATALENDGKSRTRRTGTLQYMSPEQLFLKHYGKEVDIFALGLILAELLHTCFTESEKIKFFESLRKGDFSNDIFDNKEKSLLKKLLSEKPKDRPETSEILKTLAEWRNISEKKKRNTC
Briefly: co-IP; mouse NP cell (PKR+/+) lysates; immunoprecipitation with anti-PKR antibody and reciprocal immunoprecipitation of NLRP3, Western blot; also cells treated with palmitic acid (more complex) or palmitic acid with the PKR inhibitor 2-AP (complex formation markedly restrained).

Assay [2] deals with NLRP3 (mouse (endogenous in mouse NP cells)) (UniProt Q8R4B8). Described as above.

These are yes or no findings as the source states them, for the method shown. In cells and extracts the contact can be indirect. Some entries that bind do so weakly or less than the wild type.

As to NLRP3 (from UniProt Q8R4B8 1-1033), the binding result in assay [1] is “binds”.

B1: Double-stranded RNA-dependent protein kinase (PKR) (protein, UniProt Q03963 1-515)
chain: MASDTPGFYMDKLNKYRQMHGVAITYKELSTSGPPHDRRFTFQVLIDEKEFPEAKGRSKQEARNAAAKLAVDILDNENKVDCHTSASEQGLFVGNYIGLVNSFAQKKKLSVNYEQCEPNSELPQRFICKCKIGQTMYGTGSGVTKQEAKQLAAKEAYQKLLKSPPKTAGTSSSVVTSTFSGFSSSSSMTSNGVSQSAPGSFSSENVFTNGLGENKRKSGVKVSPDDVQRNKYTLDARFNSDFEDIEEIGLGGFGQVFKAKHRIDGKRYAIKRVKYNTEKAEHEVQALAELNHVNIVQYHSCWEGVDYDPEHSMSDTSRYKTRCLFIQMEFCDKGTLEQWMRNRNQSKVDKALILDLYEQIVTGVEYIHSKGLIHRDLKPGNIFLVDERHIKIGDFGLATALENDGKSRTRRTGTLQYMSPEQLFLKHYGKEVDIFALGLILAELLHTCFTESEKIKFFESLRKGDFSNDIFDNKEKSLLKKLLSEKPKDRPETSEILKTLAEWRNISEKKKRNTC
With B1, the binding entry in assay [2] is reported as “binds”.
